In patent US20240150473A1, “MODULATION OF WNT SIGNALING IN GASTROINTESTINAL DISORDERS” (Surrozen Operating, Inc., priority 2021, published 2024) one finds binding data, which are given here for one molecule.

This assay concerns the target T1, biotinylated LRP6E3E4 (UniProt O75581).
T1 sequence (biotinylated (site not stated), looked up): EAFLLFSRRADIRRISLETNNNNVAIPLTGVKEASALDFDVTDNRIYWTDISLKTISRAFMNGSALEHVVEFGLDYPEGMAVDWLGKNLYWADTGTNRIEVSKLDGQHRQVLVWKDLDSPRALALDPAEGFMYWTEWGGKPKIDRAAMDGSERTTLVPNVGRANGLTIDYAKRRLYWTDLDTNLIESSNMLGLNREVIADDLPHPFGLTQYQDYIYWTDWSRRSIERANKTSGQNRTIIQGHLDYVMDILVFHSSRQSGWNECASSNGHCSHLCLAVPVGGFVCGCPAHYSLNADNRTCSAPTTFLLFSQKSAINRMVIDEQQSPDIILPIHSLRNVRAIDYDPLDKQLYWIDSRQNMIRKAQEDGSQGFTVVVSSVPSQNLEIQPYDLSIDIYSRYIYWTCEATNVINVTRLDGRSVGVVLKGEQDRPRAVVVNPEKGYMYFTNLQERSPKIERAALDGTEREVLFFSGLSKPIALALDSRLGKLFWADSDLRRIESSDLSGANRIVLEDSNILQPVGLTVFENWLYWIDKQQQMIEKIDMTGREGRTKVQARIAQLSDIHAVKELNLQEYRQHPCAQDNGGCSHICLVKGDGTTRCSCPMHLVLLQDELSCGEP
Briefly: BLI (Octet), Lrp6E3E4 domain.

These are yes or no findings as the source states them, for the method shown. Some binding calls cover weakened binding; strength is not graded here.

B1: VHH26-H5 (VHH)
VHH: EVQLVESGGGLVQPGGSLRLSCAGSGRIFAIYDIAWYRQAPGKGREWVAMIRPVVTEIDYADSVKGRFTISRDNSKKTVYLQMNSLRAEDTAVYYCNAKRPWGSRDEYWGQGTTVTVSS
For the molecule B1, the binding result is reported as “binds”.
